Reference: article PMC5435539 (Journal of applied toxicology : JAT, 2017)

Tests used:
[1] = tested on: MCF-7 cells; assay: Alamar Blue cell viability assay, 24 h; type: cell-based; details: Homo sapiens, MCF7, 24 h, read-out: IC50 MCF-7 (Alamar Blue)
[2] = tested on: MCF-10A breast epithelial cells; assay: Cell viability assay; type: cell-based; details: Homo sapiens, 24 h, read-out: IC50 MCF-10A

CC/C(=C(\c1ccccc1)c1ccc(OCCN(C)C)cc1)c1ccccc1 [Tamoxifen, reference compound]
IC50 [1]: 18 ± 2.21 µM | IC50 [2]: 38.9 ± 1.19 µM
